# Data reported in publication PMC6126872.
# Amino acid sequences for entries named in this document (tags omitted). A change or cut given only in a name is not applied to a line headed by its entry. Residues count along the entry.
# UniProt P03423, residues 64-298: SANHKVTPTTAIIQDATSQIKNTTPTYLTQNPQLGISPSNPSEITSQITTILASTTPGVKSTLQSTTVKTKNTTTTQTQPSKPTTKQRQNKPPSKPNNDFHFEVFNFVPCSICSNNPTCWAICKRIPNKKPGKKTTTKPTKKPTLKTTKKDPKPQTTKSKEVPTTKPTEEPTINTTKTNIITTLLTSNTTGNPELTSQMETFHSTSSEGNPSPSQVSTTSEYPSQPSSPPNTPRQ
# UniProt P49238: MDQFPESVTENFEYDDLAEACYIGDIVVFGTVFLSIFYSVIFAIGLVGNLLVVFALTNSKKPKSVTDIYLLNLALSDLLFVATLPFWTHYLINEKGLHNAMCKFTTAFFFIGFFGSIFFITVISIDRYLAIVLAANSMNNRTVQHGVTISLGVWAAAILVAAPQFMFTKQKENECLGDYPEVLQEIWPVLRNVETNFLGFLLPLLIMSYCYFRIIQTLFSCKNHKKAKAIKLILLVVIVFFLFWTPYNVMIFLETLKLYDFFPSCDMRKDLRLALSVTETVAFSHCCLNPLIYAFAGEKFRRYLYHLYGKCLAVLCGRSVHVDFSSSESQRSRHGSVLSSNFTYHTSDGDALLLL
# Target: Recombinant Mammalian expressed G ectodomain (RMG) of RSV A2 (respiratory syncytial virus (RSV) strain A2) (UniProt P03423)
# Assay: SPR; RMG captured on a HTG sensor chip via Histidine tag (500 RU); recombinant CX3CR1 5 μg/mL injected at 50 μl/min for 120 s; ProteOn; binding without serum set as 100%; both purified
substance,measurement,value
recombinant CX3CR1 (from UniProt P49238) (receptor),binding,binds

# These are yes or no findings as the source states them, for the method shown. Binding can be weak; no strength is given.
